The source of these data is paper PMC6830126.

Chains of the proteins cited; added tags and fusions are not shown. Residues count along the entry.
UniProt Q5FVQ8, residues 85-973: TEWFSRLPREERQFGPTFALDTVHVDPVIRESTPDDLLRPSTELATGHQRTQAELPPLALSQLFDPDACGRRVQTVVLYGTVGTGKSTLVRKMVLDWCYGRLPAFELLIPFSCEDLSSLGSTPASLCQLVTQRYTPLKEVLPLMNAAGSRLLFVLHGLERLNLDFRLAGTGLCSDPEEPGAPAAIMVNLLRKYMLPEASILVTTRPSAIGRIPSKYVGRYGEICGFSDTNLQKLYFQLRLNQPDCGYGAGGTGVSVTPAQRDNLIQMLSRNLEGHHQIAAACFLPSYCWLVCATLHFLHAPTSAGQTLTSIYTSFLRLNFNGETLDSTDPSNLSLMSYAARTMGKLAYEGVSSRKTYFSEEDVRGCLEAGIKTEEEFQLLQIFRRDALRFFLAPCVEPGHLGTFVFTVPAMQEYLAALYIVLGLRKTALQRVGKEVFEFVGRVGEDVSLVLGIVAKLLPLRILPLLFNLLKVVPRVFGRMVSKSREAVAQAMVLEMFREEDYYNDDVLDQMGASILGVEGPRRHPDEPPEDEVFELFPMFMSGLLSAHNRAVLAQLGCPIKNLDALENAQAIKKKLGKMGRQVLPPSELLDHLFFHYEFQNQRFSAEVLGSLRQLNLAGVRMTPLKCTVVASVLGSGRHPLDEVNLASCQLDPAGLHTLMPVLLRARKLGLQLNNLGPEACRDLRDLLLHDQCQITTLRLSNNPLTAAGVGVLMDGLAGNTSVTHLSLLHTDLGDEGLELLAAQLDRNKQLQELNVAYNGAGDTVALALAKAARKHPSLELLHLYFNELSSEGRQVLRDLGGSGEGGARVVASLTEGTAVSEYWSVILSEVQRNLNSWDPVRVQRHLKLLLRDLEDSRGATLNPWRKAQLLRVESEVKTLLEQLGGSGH
UniProt Q9Z2L0: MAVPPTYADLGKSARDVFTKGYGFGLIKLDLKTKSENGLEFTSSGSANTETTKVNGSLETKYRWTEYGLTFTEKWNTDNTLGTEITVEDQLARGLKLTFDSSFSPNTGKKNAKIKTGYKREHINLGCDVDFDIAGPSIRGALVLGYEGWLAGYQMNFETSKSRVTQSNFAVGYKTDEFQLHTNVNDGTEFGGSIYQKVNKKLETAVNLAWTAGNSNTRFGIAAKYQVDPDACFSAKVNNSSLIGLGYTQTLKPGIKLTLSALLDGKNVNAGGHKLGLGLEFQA

The target of assay [1] is Nucleotide-binding domain and leucine-rich repeat-containing protein X1 (NLRX1), rat, endogenous (rat (endogenous in PMVECs)) (UniProt Q5FVQ8). Nature of the assay: co-IP; endogenous proteins; immunoprecipitation of NLRX1 from PMVEC lysates, blot for VDAC1 (Supplementary Figure S4); treatment of the cells not given.
Assay [2] concerns the target T1, phosphorylated TBK1, rat, endogenous (rat (endogenous in PMVECs)) (UniProt D4A7D3).
T1 sequence (chain, phosphorylated (p-TBK1; site not printed)): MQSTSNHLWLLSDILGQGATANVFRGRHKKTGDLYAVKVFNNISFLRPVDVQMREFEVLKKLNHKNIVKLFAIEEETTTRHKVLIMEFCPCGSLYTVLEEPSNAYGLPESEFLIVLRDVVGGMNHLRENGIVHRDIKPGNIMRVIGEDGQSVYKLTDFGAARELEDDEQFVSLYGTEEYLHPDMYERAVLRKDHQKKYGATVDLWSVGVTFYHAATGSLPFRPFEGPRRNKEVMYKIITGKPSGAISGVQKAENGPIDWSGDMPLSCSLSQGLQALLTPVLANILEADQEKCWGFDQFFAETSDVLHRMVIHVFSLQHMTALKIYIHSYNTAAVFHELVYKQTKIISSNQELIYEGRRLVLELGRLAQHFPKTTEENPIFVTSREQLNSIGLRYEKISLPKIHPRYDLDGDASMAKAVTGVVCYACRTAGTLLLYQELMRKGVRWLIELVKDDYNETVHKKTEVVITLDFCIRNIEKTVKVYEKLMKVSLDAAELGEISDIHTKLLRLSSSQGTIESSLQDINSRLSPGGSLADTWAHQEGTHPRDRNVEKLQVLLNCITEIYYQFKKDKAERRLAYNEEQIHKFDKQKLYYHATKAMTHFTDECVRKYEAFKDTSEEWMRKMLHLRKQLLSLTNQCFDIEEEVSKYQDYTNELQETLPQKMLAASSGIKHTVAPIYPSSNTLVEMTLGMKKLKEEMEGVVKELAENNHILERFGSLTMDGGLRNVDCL
Nature of the assay: co-IP; endogenous proteins; rat PMVECs treated with sodium azide for 3 h; lysate in IP lysis buffer (Pierce) with 2 ug primary antibody at 4°C overnight, Protein G-Sepharose or Protein A/G agarose 60 min at 4°C, four washes; western blot; isotype IgG as control. In general terms: In western blotting, separated proteins are transferred to a membrane and probed.

Assay [3] has as its target T2, TBK1, rat, endogenous (rat (endogenous in PMVECs)) (UniProt D4A7D3).
T2 sequence: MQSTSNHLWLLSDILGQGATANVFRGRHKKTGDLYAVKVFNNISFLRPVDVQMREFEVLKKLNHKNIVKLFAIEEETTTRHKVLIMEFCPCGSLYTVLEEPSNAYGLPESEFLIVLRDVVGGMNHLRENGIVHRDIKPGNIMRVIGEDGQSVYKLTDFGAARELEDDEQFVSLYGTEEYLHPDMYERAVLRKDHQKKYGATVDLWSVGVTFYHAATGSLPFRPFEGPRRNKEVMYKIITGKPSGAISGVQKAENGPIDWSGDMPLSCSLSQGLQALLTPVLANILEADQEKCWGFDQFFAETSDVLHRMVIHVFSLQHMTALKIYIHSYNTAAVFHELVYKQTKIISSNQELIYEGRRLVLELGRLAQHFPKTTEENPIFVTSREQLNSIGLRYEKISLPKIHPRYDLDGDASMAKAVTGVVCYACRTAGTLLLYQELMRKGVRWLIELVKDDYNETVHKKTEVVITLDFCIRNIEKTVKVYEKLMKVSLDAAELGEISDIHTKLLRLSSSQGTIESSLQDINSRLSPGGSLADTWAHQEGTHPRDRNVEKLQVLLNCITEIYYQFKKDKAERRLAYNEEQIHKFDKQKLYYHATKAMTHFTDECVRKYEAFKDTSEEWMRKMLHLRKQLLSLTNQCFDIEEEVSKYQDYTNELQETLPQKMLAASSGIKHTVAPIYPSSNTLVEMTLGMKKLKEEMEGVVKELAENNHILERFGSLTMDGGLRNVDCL
The description is as above.

Assay [4] has as its target T3, MAVS, rat, endogenous (rat (endogenous in PMVECs)) (UniProt Q66HG9).
T3 sequence: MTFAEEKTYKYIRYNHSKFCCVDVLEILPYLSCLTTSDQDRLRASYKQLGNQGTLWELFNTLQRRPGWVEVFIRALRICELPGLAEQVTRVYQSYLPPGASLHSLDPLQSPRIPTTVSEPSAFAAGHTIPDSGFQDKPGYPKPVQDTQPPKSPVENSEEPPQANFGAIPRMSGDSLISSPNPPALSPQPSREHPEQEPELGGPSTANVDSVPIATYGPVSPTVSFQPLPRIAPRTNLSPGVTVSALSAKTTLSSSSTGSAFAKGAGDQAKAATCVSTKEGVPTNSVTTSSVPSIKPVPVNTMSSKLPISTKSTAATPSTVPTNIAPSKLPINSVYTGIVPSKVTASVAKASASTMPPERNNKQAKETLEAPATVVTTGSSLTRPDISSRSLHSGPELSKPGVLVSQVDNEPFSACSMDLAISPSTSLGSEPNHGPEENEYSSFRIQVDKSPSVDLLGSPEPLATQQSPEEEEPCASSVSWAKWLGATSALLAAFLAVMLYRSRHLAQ
The description is as above.

For assay [5], the target named is Nucleotide-binding domain and leucine-rich repeat-containing protein X1 (NLRX1), rat, endogenous (rat (endogenous in PMVECs)) (UniProt Q5FVQ8). Nature of the assay: co-IP; as a1, but untreated (vehicle, control) PMVECs; immunoprecipitation with anti-NLRX1 antibody.
The target is the same in assay [6]. The experiment in a line: co-IP; endogenous proteins; rat PMVECs treated with sodium azide for 3 h; lysate in IP lysis buffer (Pierce) with 2 ug primary antibody at 4°C overnight, Protein G-Sepharose or Protein A/G agarose 60 min at 4°C, four washes; western blot; isotype IgG as control.

These are yes or no findings as the source states them, for the method shown. In cells and extracts the contact can be indirect. Some binding calls cover weakened binding; strength is not graded here.

“VDAC1, rat, endogenous (from UniProt Q9Z2L0 1-283)”: in assay [1], the binding entry was “no binding”.

As to “Nucleotide-binding domain and leucine-rich repeat-containing protein X1 (NLRX1), rat, endogenous (from UniProt Q5FVQ8 85-973)”, the binding result in assay [2], in assay [3] and in assay [4] was “binds” each time.

B1: IKKβ, rat, endogenous (protein, UniProt Q9QY78 1-757)
chain: MSWSPSLPTQTCGAWEMKERLGTGGFGNVIRWHNQVTGEQIAIKQCRQELSPKNRDRWCLEIQIMRRLNHPNVVAARDVPEGMQNLAPNDLPLLAMEYCQGGDLRRYLNQFENCCGLREGAILTLLSDIASALRYLHENRIIHRDLKPENIVLQQGEKRLIHKIIDLGYAKELDQGSLCTSFVGTLQYLAPELLEQQKYTVTVDYWSFGTLAFECITGFRPFLPNWQPVQWHSKVRQKSEVDIVVSEDLNGTVKFSSSSPFPNNLNSVLAERLEKWLQLMLTWQPRQRGVDPQYGPNGCFRALDDILNLKLVHILNMVTGTIHTYPVMEDESLQSLKTRIREDTGILETDQELLQEAGLVLLPDKPATQCISDSKTNEGLTLDMDLVFLFDNSKMSYETQITPRPQPESVSCVLQEPKRNLSFFQMRKVWGQVWHSIQTLKEDCNRLQQGQRAAMMNLLRNNSCLSKMKNAMASTAQQLKAKLDFFKTSIQIDLEKYREQTEFGITSDKLLLAWREMEQAVEQCGRENDVKVLVERMMALQTDIVDLQRSPMGRKQGGTLDDLEEQARELYRRLREKPRDQRTEGDSQDMVRLLLQAIQSFEKKVRVIYSQLSKTVVCKQKALELLPKVEEVVRLMNEDEKTVVRLQEKRQKELWNLLKIACSKVRGPVSGSPDSMNVSRLSHPGHLMSQPSSACDSLPDSDKKSEELVAEAHALCSRLESALQDTVKQQDRSFTTLDWSWLQMEDEERCGLEQACD
As to B1, the binding result in assay [5] was “no binding (condition: untreated cells (no sodium azide))”; in assay [6] it was “binds”.

B2: TRAF6, rat, endogenous (protein, UniProt B5DF45 1-530)
chain: MSLLNCENSCASSQSSSDCCAAMANSCSAAMKDDSVSGCVSTGNLSSSFMEEIQGYDVEFDPPLESKYECPICLMALREAVQTPCGHRFCKACITKSIRDAGHKCPVDNEILLENQLFPDNFAKREILSLTVKCPNKGCVQKMELRHLEDHQVHCEFALVICPQCQRFFQKCQINKHIIEDCPRRQVSCVNCAVPMPYEEKEIHDQSCPLANIICEYCGTILIREQMPNHYDLDCPTAPVPCTFSVFGCHEKMQRNHLARHLQENTQLHMRLLAQAVHNVNLSLRPCDASSPSRGCRPEDPNYEETVKQLEGRLVRQDHQIRELTAKMETQSMHVSELKRTIRSLEDKVAEMEAQQCNGIYIWKIGNFGMHLKSQEEERPVVIHSPGFYTGRPGYKLCMRLHLQLPTAQRCANYISLFVHTMQGEYDSHLPWPFQGTIRLTILDQSEAVIRQNHEEVMDAKPELLAFQRPTIPRNPKGFGYVTFMHLEALRQGTFIKDDTLLVRCEVSTRFDMGGLRKEGFQPRSTDAGV
Turning to B2, the binding result in assay [5] is given as “no binding (condition: untreated cells (no sodium azide))”; in assay [6], “binds”; in assay [4] it was “binds”.

B3: STING, rat, endogenous (protein, UniProt F1M391 1-379)
chain: MPYSNLHPSIPRPRSYRFKLAAFVLLVGSLMSLWMTGEPPSHTLHYLALHVASQQLGLLLKKLCCLAEELCHVQSRYQGSYWKAVRACVGSPICFMALILLSFYFYCSLENTSDLRLAWHLGILVLSKSLSMTLDLQSLAPAEVSAVCEEKNFNVAHGLAWSYYIGYLKLILPGLQARIRMFNQLHNNMLSGAGSRRLYILFPLDCGVPDDLSVADPNIRFRDMLPQQNTDRAGVKNRAYSNSVYELLENGQPAGACILEYATPLQTLFAMSQDGKAGFSREDRLEQAKLFCRTLEEILADVPESRNHCRLIVYQESEEGNSFSLSQEVLRHIRQEEKEEVTMSGPPTSVAPRPSLLSQEPRLLISGMEQPLPLRTDLI
On to B3, for which the binding entry in assay [5] and in assay [6] was “no binding” throughout.
